According to the supplement of paper PMC4604168 (melanoma cell lines):
The list shows a part of the results. Many values rest on one well or one pass, so single values are uncertain.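 Imaging used 1,536-well plates; nuclei positive for cleaved PARP by antibody were divided by total DNA-stained nuclei to yield the apoptosis fraction. Doses for screening kept most cells viable, and cell lines differ markedly in resting and induced cleaved-PARP levels.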

Legend:
Assay in all cases: cleaved PARP positive nuclei fraction relative to DMSO control; melanoma cells; higher = more apoptosis
Conditions in all cases: library dose: low library concentration; 72 h
501Mel = system: 501Mel
A101D = system: A101D
A2058 = system: A2058
A375 = system: A375
C32 = system: C32
CBRC013 = system: CBRC013 (line from a melanoma biopsy)
CBRC014 = system: CBRC014 (line from a melanoma biopsy)
CBRC016 = system: CBRC016 (line from a melanoma biopsy)
CBRC017 = system: CBRC017 (line from a melanoma biopsy)
CBRC008 = system: CBRC008 (line from a melanoma biopsy)

| Compound | cleaved PARP positive nuclei fraction (501Mel) [%] | cleaved PARP positive nuclei fraction (A101D) [%] | cleaved PARP positive nuclei fraction (A2058) [%] | cleaved PARP positive nuclei fraction (A375) [%] | cleaved PARP positive nuclei fraction (C32) [%] | cleaved PARP positive nuclei fraction (CBRC013) [%] | cleaved PARP positive nuclei fraction (CBRC014) [%] | cleaved PARP positive nuclei fraction (CBRC016) [%] | cleaved PARP positive nuclei fraction (CBRC017) [%] | cleaved PARP positive nuclei fraction (CBRC008) [%] |
| --- | --- | --- | --- | --- | --- | --- | --- | --- | --- | --- |
| CO[C@@H]1[C@H](N(C)C(=O)c2ccccc2)C[C@H]2O[C@]1(C)n1c3ccccc3c3c4c(c5c6ccccc6n2c5c31)C(=O)NC4 [Midostaurin] + O=C(Oc1ccc([N+](=O)[O-])cc1)N1CCC(C(O)(c2ccc3c(c2)OCO3)c2ccc3c(c2)OCO3)CC1 [JZL184] (first compound 0.08 µM, partner dose 1 µM) | 90.4 | 33.2 | 103 | 62.5 | 38.3 | 140 | 92.3 | 121 | 80.2 |  |
| Cn1cncc1[C@@](N)(c1ccc(Cl)cc1)c1ccc2c(c1)c(-c1cccc(Cl)c1)cc(=O)n2C [tipifarnib] + Cc1cc(SCc2sc(-c3ccc(C(F)(F)F)c(F)c3)nc2C)ccc1OCC(=O)O [GW0742] (first compound 0.01 µM, partner dose 2 µM) | 55.4 | 109 | 81.7 | 302 | 111 | 125 | 93.8 | 89.8 | 152 |  |
| CC1(C)NC(=O)N(c2ccc([N+](=O)[O-])c(C(F)(F)F)c2)C1=O [nilutamide] + Cc1cc(SCc2sc(-c3ccc(C(F)(F)F)c(F)c3)nc2C)ccc1OCC(=O)O [GW0742] (first compound 1 µM, partner dose 2 µM) | 82.2 | 220 | 80.5 | 98.2 | 143 | 90.8 | 101 | 159 | 78.7 |  |
| CN(C)S(=O)(=O)c1ccc2c(c1)/C(=C/c1cc3c([nH]1)CCCC3)C(=O)N2 + O=C(Oc1ccc([N+](=O)[O-])cc1)N1CCC(C(O)(c2ccc3c(c2)OCO3)c2ccc3c(c2)OCO3)CC1 [JZL184] (first compound 0.4 µM, partner dose 1 µM) | 87.6 | 144 | 38.6 | 121 | 68.6 | 244 | 98.7 | 19.3 | 283 |  |
| Cc1nc(Nc2ncc(C(=O)Nc3c(C)cccc3Cl)s2)cc(N2CCN(CCO)CC2)n1 [dasatanib] + Cc1cc(SCc2sc(-c3ccc(C(F)(F)F)c(F)c3)nc2C)ccc1OCC(=O)O [GW0742] (first compound 0.004 µM, partner dose 2 µM) | 62.8 | 150 | 230 | 277 | 249 | 112 | 128 |  | 119 |  |
| O=C(Oc1ccc([N+](=O)[O-])cc1)N1CCC(C(O)(c2ccc3c(c2)OCO3)c2ccc3c(c2)OCO3)CC1 + CCCCCCCCCCCC1=C(O)C(=O)C=C(O)C1=O [Embelin] (first compound 1 µM, partner dose 1.2 µM) | 82.2 | 129 | 42.4 | 147 | 253 | 39.8 | 92.2 | 65.8 | 78.5 |  |
| COC(=O)c1sccc1S(=O)(=O)Nc1ccc(Nc2ccccc2)cc1OC + Cc1cc(SCc2sc(-c3ccc(C(F)(F)F)c(F)c3)nc2C)ccc1OCC(=O)O [GW0742] (first compound 1 µM, partner dose 2 µM) | 76.5 | 109 | 91.8 | 33.4 | 71.9 | 272 | 114 | 57.2 | 88.7 |  |
| OCCn1cc(-c2cnc3nnn(Cc4ccc5ncccc5c4)c3n2)cn1 + C/C(O)=C(\C#N)C(=O)Nc1cc(Br)ccc1Br [LFM-A13] (first compound 1 µM, partner dose 2 µM) | 95.9 | 113 | 29.1 | 153 | 62.9 | 23.1 | 92.7 | 107 | 189 |  |
| C/C(O)=C(\C#N)C(=O)Nc1cc(Br)ccc1Br + Oc1nc(-c2ccc(C(F)(F)F)cc2)nc2c1CSCC2 [XAV939] (first compound 2 µM, partner dose 2 µM) | 70 | 118 | 47.8 | 47.1 | 84.7 | 97.8 | 96.7 | 23.1 | 80.4 |  |
| C[As](C)SC[C@H](NC(=O)CC[C@H](N)C(=O)O)C(=O)NCC(=O)O [Darinaparsin] + COc1ccc2c(c1)CCC1C2CCC2(C)C(NCCCCCCN3C(=O)C=CC3=O)CCC12 [U73122] (first compound 0.4 µM, partner dose 0.4 µM) | 55.9 | 110 | 37.2 | 56.7 | 168 | 209 | 180 | 67.9 | 70.7 |  |
| COCC[n+]1c2c(n(Cc3cnccn3)c1C)C(=O)c1ccccc1C2=O + C/C(O)=C(\C#N)C(=O)Nc1cc(Br)ccc1Br [LFM-A13] (first compound 0.0004 µM, partner dose 2 µM) | 56.9 | 106 | 73.7 | 560 | 197 | 71.5 | 101 | 97.8 | 77.7 |  |
| COc1cc2c(Oc3ccc4[nH]c(C)cc4c3F)ncnc2cc1OCCCN1CCCC1 [cediranib] + C/C(O)=C(\C#N)C(=O)Nc1cc(Br)ccc1Br [LFM-A13] (first compound 0.4 µM, partner dose 2 µM) | 92.1 | 134 | 32.6 | 119 | 70.6 | 114 | 155 | 49.6 | 127 |  |
| C=CCn1c(=O)c2cnc(Nc3ccc(N4CCN(C)CC4)cc3)nc2n1-c1cccc(C(C)(C)O)n1 + O=C(Oc1ccc([N+](=O)[O-])cc1)N1CCC(C(O)(c2ccc3c(c2)OCO3)c2ccc3c(c2)OCO3)CC1 [JZL184] (first compound 0.02 µM, partner dose 1 µM) | 95.5 | 157 | 60.3 | 131 | 160 | 113 | 134 | 62.4 | 101 |  |
| Cn1cc(C2=C(c3cn(C4CCN(Cc5ccccn5)CC4)c4ccccc34)C(=O)NC2=O)c2ccccc21 [Enzastaurin] + Cn1cc(/C=C2\C(=O)Nc3cccnc32)c2ccccc21 [GW441756] (first compound 0.8 µM, partner dose 0.4 µM) | 134 | 28.6 | 84 |  | 38.4 |  | 135 | 116 | 162 | 163 |
| N.N.[Cl][Pt][Cl] [cisplatin] + COc1ccc(-c2ccc3c(N4CCOCC4)nc(N4C[C@@H](C)O[C@@H](C)C4)nc3n2)cc1CO [KU0063794] (first compound 1.6 µM, partner dose 0.02 µM) | 57.9 | 30.9 | 104 |  | 74.1 |  | 96.2 | 164 | 364 | 347 |
| CCCCCCCCc1ccc(CCC(N)(CO)CO)cc1 [fingolimod] + C/C(O)=C(\C#N)C(=O)Nc1cc(Br)ccc1Br [LFM-A13] (first compound 2 µM, partner dose 2 µM) | 72.2 | 49.5 | 346 |  | 81.3 |  | 90.7 | 71.3 | 186 | 72.6 |
| O=C(O)c1ccc2c(c1)nc(Nc1cccc(Cl)c1)c1ccncc12 + O=C(Oc1ccc([N+](=O)[O-])cc1)N1CCC(C(O)(c2ccc3c(c2)OCO3)c2ccc3c(c2)OCO3)CC1 [JZL184] (first compound 0.4 µM, partner dose 1 µM) | 101 | 24.8 | 125 |  | 31.9 |  | 117 | 130 | 124 | 96.3 |
| N.N.[Cl][Pt][Cl] [cisplatin] + Cn1cc(/C=C2\C(=O)Nc3cccnc32)c2ccccc21 [GW441756] (first compound 1.6 µM, partner dose 0.4 µM) | 39.2 | 35.8 | 137 |  | 144 |  | 96.6 | 140 | 251 | 122 |
| N.N.[Cl][Pt][Cl] [cisplatin] + Oc1cc(-c2nc(-c3ccccc3)[nH]c2-c2ccncc2)ccc1Cl [L779450] (first compound 1.6 µM, partner dose 0.2 µM) | 34.3 | 26.2 | 130 |  | 54 |  | 110 | 136 | 111 | 188 |
| N#CC[C@H](C1CCCC1)n1cc(-c2ncnc3[nH]ccc23)cn1 [ruxolitinib] + C/C(O)=C(\C#N)C(=O)Nc1cc(Br)ccc1Br [LFM-A13] (first compound 1 µM, partner dose 2 µM) | 30 | 22.1 | 95.7 |  | 131 |  | 92.4 | 134 | 85.8 | 110 |
| O=C(O)c1ccc2c(c1)nc(Nc1cccc(Cl)c1)c1ccncc12 + Cc1cc(SCc2sc(-c3ccc(C(F)(F)F)c(F)c3)nc2C)ccc1OCC(=O)O [GW0742] (first compound 0.4 µM, partner dose 2 µM) | 52.7 | 32.9 | 48.8 |  | 101 |  | 131 | 125 | 220 | 198 |
| Cc1cn(-c2cc(NC(=O)c3ccc(C)c(Nc4nccc(-c5cccnc5)n4)c3)cc(C(F)(F)F)c2)cn1 [nilotinib] + O=C(Oc1ccc([N+](=O)[O-])cc1)N1CCC(C(O)(c2ccc3c(c2)OCO3)c2ccc3c(c2)OCO3)CC1 [JZL184] (first compound 0.2 µM, partner dose 1 µM) | 67.5 | 8.42 | 103 |  | 37.1 |  | 108 | 81.7 | 121 | 68.8 |

Reformatted bar-delimited: entries from further up.
Compound | cleaved PARP positive nuclei fraction (501Mel) [%] | cleaved PARP positive nuclei fraction (A101D) [%] | cleaved PARP positive nuclei fraction (A2058) [%] | cleaved PARP positive nuclei fraction (A375) [%] | cleaved PARP positive nuclei fraction (C32) [%] | cleaved PARP positive nuclei fraction (CBRC013) [%] | cleaved PARP positive nuclei fraction (CBRC014) [%] | cleaved PARP positive nuclei fraction (CBRC016) [%] | cleaved PARP positive nuclei fraction (CBRC017) [%] | cleaved PARP positive nuclei fraction (CBRC008) [%]
C=CCn1c(=O)c2cnc(Nc3ccc(N4CCN(C)CC4)cc3)nc2n1-c1cccc(C(C)(C)O)n1 + O=C(Oc1ccc([N+](=O)[O-])cc1)N1CCC(C(O)(c2ccc3c(c2)OCO3)c2ccc3c(c2)OCO3)CC1 [JZL184] (first compound 0.02 µM, partner dose 1 µM) | 95.5 | 157 | 60.3 | 131 | 160 | 113 | 134 | 62.4 | 101 | 
N#CC[C@H](C1CCCC1)n1cc(-c2ncnc3[nH]ccc23)cn1 [ruxolitinib] + C/C(O)=C(\C#N)C(=O)Nc1cc(Br)ccc1Br [LFM-A13] (first compound 1 µM, partner dose 2 µM) | 30 | 22.1 | 95.7 |  | 131 |  | 92.4 | 134 | 85.8 | 110
